At least one compound was matched to its structure with a doubt left.
Biological target: T1, humanized mhT1R3 (Homo sapiens, UniProt Q7RTX0, A109T/A120V/A176D/A197V/A198V/A228S/A231N/A248T/A280V/A282S/A302S/A412V/A417V/A46T/A537T/C375D/D124S/D249S/D250G/D364H/D419E/D470T/D491G/D88A/DEL352-352/DEL488-489/E172D/E199T/E203N/E217D/E356N/E45S/E481Q/E505D/E525K/E545Q/F540P/F555L/G168S/G205S/G311T/G314N/G355L/G360D/G414H/G438R/G439D/G463S/G50T/G542N/H261R/H278R/H281Y/H332P/I485M/I536F/INS376MLQNLSSG/K32Q/K339E/K422L/K494V/K86G/L173R/L245Q/L272V/L29F/L354S/L385Q/L433M/L458M/L483S/L71F/L74M/M151L/M315I/M318V/M31A/N285S/N386L/N532H/N68L/P112S/P246H/P335S/P416H/P420H/P441T/P60I/Q221E/Q257L/Q317R/Q330L/Q336H/Q359L/Q372R/Q418S/Q504K/Q531K/R123Q/R247D/R252Q/R291G/R30K/R357A/R443Q/R467V/R473T/R479Q/R482Q/R486Y/R498Q/R52N/R550K/R553A/R556P/R560K/R56Q/S251Q/S267K/S289H/S290H/S392A/S446A/S447E/S464P/S477T/S490P/S53Q/S559P/S58N/S67P/T195Q/T346A/T377L/T390I/T434S/T480L/T63N/V152I/V277A/V366M/V36I/V381L/V393T/V437A/V465T/V61P/W72L)
T1 construct: the extracellular domain is of mouse origin and the transmembrane and intracellular domains of human origin; mouse T1R3 extracellular domain (fusion partner replacing the human extracellular domain); expressed in transfected cells; host or cells: transgenic Line 7c mice (T1R3-/-, Gus-/-, mhT1R3+/-)
T1 sequence (Q7RTX0 with tags, fused parts or gaps L29F/R30K/M31A/K32Q/V36I/E45S/A46T/G50T/R52N/S53Q/R56Q/S58N/P60I/V61P/T63N/S67P/N68L/L71F/W72L/L74M/K86G/D88A/A109T/P112S/A120V/R123Q/D124S/M151L/V152I/G168S/E172D/L173R/A176D/T195Q/A197V/A198V/E199T/E203N/G205S/E217D/Q221E/A228S/A231N/L245Q/P246H/R247D/A248T/D249S/D250G/S251Q/R252Q/Q257L/H261R/S267K/L272V/V277A/H278R/A280V/H281Y/A282S/N285S/S289H/S290H/R291G/A302S/G311T/G314N/M315I/Q317R/M318V/Q330L/H332P/P335S/Q336H/K339E/T346A/DEL352-352/L354S/G355L/E356N/R357A/Q359L/G360D/D364H/V366M/Q372R/C375D/INS376MLQNLSSG/T377L/V381L/L385Q/N386L/T390I/S392A/V393T/A412V/G414H/P416H/A417V/Q418S/D419E/P420H/K422L/L433M/T434S/V437A/G438R/G439D/P441T/R443Q/S446A/S447E/L458M/G463S/S464P/V465T/R467V/D470T/R473T/S477T/R479Q/T480L/E481Q/R482Q/L483S/I485M/R486Y/DEL488-489/S490P/D491G/K494V/R498Q/Q504K/E505D/E525K/Q531K/N532H/I536F/A537T/F540P/G542N/E545Q/R550K/R553A/F555L/R556P/S559P/R560K limits assumed): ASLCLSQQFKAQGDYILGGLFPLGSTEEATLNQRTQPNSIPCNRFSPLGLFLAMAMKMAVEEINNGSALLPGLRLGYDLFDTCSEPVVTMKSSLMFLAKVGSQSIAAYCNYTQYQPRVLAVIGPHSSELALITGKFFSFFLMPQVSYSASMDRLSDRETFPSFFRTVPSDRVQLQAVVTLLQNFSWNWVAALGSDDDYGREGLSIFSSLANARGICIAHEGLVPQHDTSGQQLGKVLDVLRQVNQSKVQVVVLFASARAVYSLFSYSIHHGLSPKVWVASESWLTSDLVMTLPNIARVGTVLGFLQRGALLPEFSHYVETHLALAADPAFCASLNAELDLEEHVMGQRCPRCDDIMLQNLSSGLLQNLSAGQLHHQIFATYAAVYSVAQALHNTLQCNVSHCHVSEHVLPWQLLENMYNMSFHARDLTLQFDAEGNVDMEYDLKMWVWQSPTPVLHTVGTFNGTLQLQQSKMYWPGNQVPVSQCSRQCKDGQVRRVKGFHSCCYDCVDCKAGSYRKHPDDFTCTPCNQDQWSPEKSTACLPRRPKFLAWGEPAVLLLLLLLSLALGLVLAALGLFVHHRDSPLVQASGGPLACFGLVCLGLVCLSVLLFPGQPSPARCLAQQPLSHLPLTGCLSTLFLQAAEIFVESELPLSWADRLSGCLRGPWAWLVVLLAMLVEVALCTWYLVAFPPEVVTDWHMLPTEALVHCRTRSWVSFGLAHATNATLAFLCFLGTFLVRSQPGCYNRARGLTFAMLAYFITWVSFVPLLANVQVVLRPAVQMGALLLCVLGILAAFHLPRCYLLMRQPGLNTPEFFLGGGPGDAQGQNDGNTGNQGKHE
Test: T1R3 pharmacological block with clofibrate diet (male reproduction)
Type: in vivo, mouse
Details: line 7c males on clofibrate diet
Protocol: Matched groups (six males each) of WT and line 7c mice (expressing the chimerical mhT1R3 transgene on a T1R3/α-gustducin double-null background), 3-6 months old, were fed the indicated diets for 4-6 weeks. Each genotype was tested in two groups, one on the regular diet and one on a test diet with clofibrate. An additional group of males stayed on the test diet for another 4-6 weeks, during which time they were mated with WT females to determine whether the pharmacological intervention was effective. Then the animals were allowed to recover on the regular diet for an additional 4 weeks after the end of the treatment (half-time for total sperm turnover in mice), and again were tested for their reproductive capacity, and then their tissues were analyzed. The diets were normal chow and normal chow with clofibrate (250 and 500 mg/kg body weight daily). […] As additional controls we treated T1R3-null mice, α-gustducin-null mice, and mice expressing the humanized mhT1R3 receptor on a WT α-gustducin background with clofibrate. […] Therefore, we tested these animals only for the 4 weeks without the recovery period.
For histological analyses of testicular structure in these mutant animals we used Bouin's or Davidson's fixatives and paraffin sections with H&E and PAS staining for fine tissue structure analysis and where possible for immunohistochemistry (see FIGS. 2 and 3). We used appropriate antibodies to determine the cell types (e.g., Tamoo et a; 2-2. Jostpcje, Ce;; bop;. 118(5):409-14). Measurement/staining of apoptotic cells was done with commercially available kits, such as TdT TUNEL enzyme (Roche). […] Histological, immunological and cellular analyses, and genetic determination of gene transmission, were also conducted using conventional techniques.
We observed spermatozoa after clofibrate treatment represent cells that were able to escape the inhibition of clofibric acid, most likely due to very fast clearance and fluctuating levels in rodents. This allows some tubular cells to complete the developmental cycle. Therefore, we measured sperm concentration as an indicator of efficiency of the pharmacological block and to be able to determine the concentration that results in effective sterility. We analyzed testicular morphology, sperm production, sperm motility and sperm function in in vitro fertilization after feeding these animals with the lipid lowering drug clofibrate. We tested an acute inhibition of sperm motility and function in vitro by incubating sperm from the engineered mice (mGus−/−, mT1R3−/−, hmT1R3+) in solutions containing clofibric acid or other T1R3 inhibitors. The concentration used was similar to the one used in human treatment with fibrates (˜0.03 g/kg weight, for 3 weeks). We tested sperm motility and function in vitro of the Gα-gustducin KO mice (missing only the Gα-gustducin gene (mGus−/−)) after blocking T1R3 receptors with the rodent specific inhibitor gurmarin (3 mg/ml).
We placed line 7c and WT males on a diet with clofibrate (300 mg/kg body weight), or a normal diet (no clofibrate), for 1 or 2 months. In the second month the males were housed with two young WT females to determine whether the males were fertile. The line 7c males on a regular diet were fertile. […] After 1 or 2 months of clofibrate treatment, the line 7c males had substantially less sperm (i.e., about one-quarter that of the WT males), whereas line 7c males on regular feed had the same amount of sperm as WT males.

Amino acid sequences for entries named in this document (tags omitted). A change or cut given only in a name is not applied to a line headed by its entry.
UniProt Q7RTX0: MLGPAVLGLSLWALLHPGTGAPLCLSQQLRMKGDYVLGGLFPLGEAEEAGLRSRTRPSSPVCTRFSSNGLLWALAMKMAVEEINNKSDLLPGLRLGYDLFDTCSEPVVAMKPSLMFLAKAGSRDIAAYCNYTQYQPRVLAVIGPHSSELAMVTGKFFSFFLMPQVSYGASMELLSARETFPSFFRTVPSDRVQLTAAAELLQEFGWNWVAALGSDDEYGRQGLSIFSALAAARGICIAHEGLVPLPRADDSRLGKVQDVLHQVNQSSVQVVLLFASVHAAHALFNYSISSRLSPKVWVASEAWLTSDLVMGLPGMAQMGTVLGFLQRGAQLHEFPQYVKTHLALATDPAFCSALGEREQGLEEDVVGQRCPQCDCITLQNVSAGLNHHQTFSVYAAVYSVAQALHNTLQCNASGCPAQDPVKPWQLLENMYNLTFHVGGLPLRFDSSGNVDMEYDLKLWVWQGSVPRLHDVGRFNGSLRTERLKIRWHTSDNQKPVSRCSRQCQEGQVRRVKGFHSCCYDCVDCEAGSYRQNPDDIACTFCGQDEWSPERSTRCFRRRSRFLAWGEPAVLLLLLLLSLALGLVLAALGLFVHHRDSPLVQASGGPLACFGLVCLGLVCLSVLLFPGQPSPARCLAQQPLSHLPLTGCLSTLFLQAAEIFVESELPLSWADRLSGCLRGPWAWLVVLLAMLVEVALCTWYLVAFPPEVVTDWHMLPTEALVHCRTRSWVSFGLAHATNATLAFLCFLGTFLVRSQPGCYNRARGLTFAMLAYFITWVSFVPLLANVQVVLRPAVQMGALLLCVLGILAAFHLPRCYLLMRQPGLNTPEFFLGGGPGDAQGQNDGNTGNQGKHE

CCOC(=O)C(C)(C)Oc1ccc(Cl)cc1 [clofibrate] was tested, and the onset of sterility was 1 week or 10 days and the reversibility of sterility was “fully reversible”.
